Measured values as given in US10583096B2, “Use of cannabinoids in the treatment of epilepsy” (GW Research Limited, priority 2016, dated 2020).

Experiment: Solubility of the drug substance in water
Assay type: physicochemical
From the text: Sesame oil was selected as an excipient to solubilize the drug substance.

Q: Which solubility in water does the source give for C=C(C)[C@@H]1CCC(C)=C[C@H]1c1c(O)cc(CCCCC)cc1O [CBD, Cannabidiol] here?
A: Its solubility in water is “insoluble in water”.
